In patent publication US20230203098A1, “HUMAN TRANSFERRIN RECEPTOR BINDING PEPTIDE” (priority 2020, published 2023):
Results are given in words; binding and its absence hold for the method and conditions named. Some binding calls cover weakened binding; strength is not graded here. For part of these data: Sequences can lack the tags named with a protein.

Assays:
[1] = molecular target: human transferrin receptor (hTfR) (human) (UniProt P02786); assay: SPR
[2] = molecular target: human transferrin receptor (hTfR) (human) (UniProt P02786); assay: SPR, hTfR immobilised
[3] = molecular target: human transferrin receptor (hTfR) (human) (UniProt P02786); assay: SPR; grade A: KD <1 nM
[4] = molecular target: human transferrin receptor (hTfR) (human) (UniProt P02786); assay: SPR; grade C: KD >=100 nM, <1 uM
[5] = molecular target: human transferrin receptor (hTfR) (human) (UniProt P02786); assay: SPR in the same manner as in Example 2
[6] = molecular target: human transferrin receptor (hTfR) (human) (UniProt P02786); assay: SPR; grade B: KD >=1 nM, <100 nM

B1: hTfR No. 894 (peptide)
peptide: AVFVWNYYIIRRYYC
modifications: 14 MeTyr; cyclic 1-15 thioether (chloroacetyl-Ala1 to Cys15)
With B1 the binding [1] was “binds” and the binding [2] was “binds”.

B2: JCR_hTfR_000894_K10 (peptide)
peptide: AVFVWNYYIKRRYYC
modifications: 14 MeY; cyclic 1-15 thioether
With B2 the binding [3] was “binds”.

B3: JCR_hTfR_000894_E11A12 (peptide)
peptide: AVFVWNYYIIEAYYC
modifications: 14 MeY; cyclic 1-15 thioether
In the case of B3, the binding [4] is reported as “binds”.

B4: JCR_hTfR_000894_K11 (peptide)
peptide: AVFVWNYYIIKRYYC
modifications: 14 MeY; cyclic 1-15 thioether
B4 was tested, and the binding [3] was “binds”.

B5: 894_v157_K(Mal) (peptide)
peptide: AVFVWNYYIIRRFYC
modifications: C-term G-G-S-G-S-G-K(Maleimide)-C; cyclic 1-15 thioether
For B5, the binding [4] was “binds”.

B6: 894_5m (peptide)
peptide: AVFVWNYYIIRRYYC
modifications: 5 MeW; 14 MeY; cyclic 1-15 thioether
B6 was tested, and the binding [3] was “binds”.

B7: 894_5m_PEG04 (peptide)
peptide: AVFVWNYYIIRRYYC
modifications: 5 MeW; 14 MeY; C-term PEG4c; cyclic 1-15 thioether
For B7, the binding [3] was “binds”.

B8: 894_3m_6H (peptide)
peptide: AVFVWHYYIIRRYYC
modifications: 3 MeF; 14 MeY; cyclic 1-15 thioether
With B8 the binding [4] was “binds”.

B9: 894_3m_14E (peptide)
peptide: AVFVWNYYIIRRYEC
modifications: 3 MePhe; C-term PEG12c; cyclic 1-15 thioether
B9 was tested, and the binding [4] was “binds”.

B10: 894_3m_4G (peptide)
peptide: AVFGWNYYIIRRYYC
modifications: 3 MePhe; 14 MeTyr; C-term PEG12c; cyclic 1-15 thioether
In the case of B10, the binding [4] is reported as “binds”.

B11: 894_3m_PEG4_KFITC (peptide)
peptide: AVFVWNYYIIRRYYC
modifications: 3 MeF; 14 MeY; C-term PEG4c-dk-FITC (5-FAM in paragraph 405); cyclic 1-15 thioether
With B11 the binding [5] was “binds” and the binding [3] was “binds”.

B12: 894_3m_6A (peptide)
peptide: AVFVWAYYIIRRYYC
modifications: 3 MePhe; 14 MeTyr; C-term PEG12c; cyclic 1-15 thioether
With B12 the binding [4] was “binds”.

B13: 894_3m_1F (peptide)
peptide: FVFVWNYYIIRRYYC
modifications: 3 MePhe; 14 MeTyr; C-term PEG12c; cyclic 1-15 thioether
For B13, the binding [4] was “binds”.

B14: 894_3m_4S (peptide)
peptide: AVFSWNYYIIRRYYC
modifications: 3 MePhe; 14 MeTyr; C-term PEG12c; cyclic 1-15 thioether
In the case of B14, the binding [4] is reported as “binds”.

B15: 894_variant_219 (peptide)
peptide: AVFVWNYYIIKRYYC
modifications: 3 MeF; 14 MeY; C-term G-K; cyclic 1-15 thioether
With B15 the binding [6] was “binds”.

B16: 894_3m_4A (peptide)
peptide: AVFAWNYYIIRRYYC
modifications: 3 MePhe; 14 MeTyr; C-term PEG12c; cyclic 1-15 thioether
With B16 the binding [4] was “binds”.

B17: 894_3m_7R (peptide)
peptide: AVFVWNRYIIRRYYC
modifications: 3 MePhe; 14 MeTyr; C-term PEG12c; cyclic 1-15 thioether
In the case of B17, the binding [6] is reported as “binds”.

B18: hTfR_000894_PEG11_(VivoTag) (peptide)
peptide: AVFVWNYYIIRRYYC
modifications: 14 MeTyr; C-term PEG12 (text: PEG11)-K(VivoTag); cyclic 1-15 thioether
For B18, the binding [6] was “binds”.

B19: JCR_hTfR_000894_PEG11_K(FITC) (peptide)
peptide: AVFVWNYYIIRRYYC
modifications: 14 MeTyr; C-term PEG11-K(FITC); cyclic 1-15 thioether
In the case of B19, the binding [3] is reported as “binds”.

B20: JCR_hTfR_000690_PEG11_K(FITC) (peptide)
peptide: AVFVWNYYIIDRFRC
modifications: C-term PEG11-K(FITC); cyclic 1-15 thioether
B20 was tested, and the binding [6] was “binds”.

B21: JCR_hTfR_000812_PEG11_K(FITC) (peptide)
peptide: AVFVWNYYIIDRFRSHC
modifications: 16 MeHis; C-term PEG11-K(FITC); cyclic 1-17 thioether
In the case of B21, the binding [6] is reported as “binds”.

B22: JCR_hTfR_000895_PEG11_K(FITC) (peptide)
peptide: AVFVWNYYIIDRFRSYC
modifications: 16 MeTyr; C-term PEG11-K(FITC); cyclic 1-17 thioether
In the case of B22, the binding [6] is reported as “binds”.

B23: JCR_hTfR_100022_PEG11_K(FITC) (peptide)
peptide: AVFVWNYYIVDRFGTGC
modifications: C-term PEG11-K(FITC); cyclic 1-17 thioether
For B23, the binding [3] was “binds”.

B24: JCR_hTfR_100025_PEG11_K(FITC) (peptide)
peptide: AVFVWNYYIVGRNVPNC
modifications: 15 printed 'pro'; C-term PEG11-K(FITC); cyclic 1-17 thioether
For B24, the binding [3] was “binds”.

B25: JCR_hTfR_000696_PEG11_K(FITC) (peptide)
peptide: ANRIVFVWNYYIIPRYC
modifications: 14 printed 'pro'; 16 MeTyr; C-term PEG11-K(FITC); cyclic 1-17 thioether
B25 was tested, and the binding [6] was “binds”.

B26: JCR_hTfR_000809_PEG11_K(FITC) (peptide)
peptide: ANRIVFVWNYYIIPRHC
modifications: 14 printed 'pro'; 16 MeHis; C-term PEG11-K(FITC); cyclic 1-17 thioether
For B26, the binding [6] was “binds”.

B27: JCR_hTfR_100014_PEG11_K(FITC) (peptide)
peptide: ASAVFVWNYYIINRWAC
modifications: C-term PEG11-K(FITC); cyclic 1-17 thioether
With B27 the binding [6] was “binds”.

B28: JCR_hTfR_100017_PEG11_K(FITC) (peptide)
peptide: ANSRTVWVWNYYIVTRC
modifications: C-term PEG11-K(FITC); cyclic 1-17 thioether
In the case of B28, the binding [6] is reported as “binds”.

B29: SP01_hTfR_894_FITC (peptide)
peptide: AVFVWNYYIIRRYYC
modifications: 14 MeTyr; C-term PEG4c-Dap(FITC); cyclic 1-15 thioether
For B29, the binding [6] was “binds”.

B30: SP16_hTfR_894_01(me)_FITC (peptide)
peptide: AVFVWNYYIIRRYYC
modifications: 1 MeAla; 14 MeTyr; C-term PEG4c-Dap(FITC); cyclic 1-15 thioether
With B30 the binding [6] was “binds”.

B31: SP18_hTfR_894_03(me)_FITC (peptide)
peptide: AVFVWNYYIIRRYYC
modifications: 3 MePhe; 14 MeTyr; C-term PEG4c-Dap(FITC); cyclic 1-15 thioether
With B31 the binding [6] was “binds”.

B32: SP20_hTfR_894_05(me)_FITC (peptide)
peptide: AVFVWNYYIIRRYYC
modifications: 5 MeTrp; 14 MeTyr; C-term PEG4c-Dap(FITC); cyclic 1-15 thioether
For B32, the binding [6] was “binds”.

B33: SP26_hTfR_894_11(me)_FITC (peptide)
peptide: AVFVWNYYIIRRYYC
modifications: 11 MeArg; 14 MeTyr; C-term PEG4c-Dap(FITC); cyclic 1-15 thioether
For B33, the binding [6] was “binds”.

B34: 894_v00_PEG12_C_Mal(FITC) (peptide)
peptide: AVFVWNYYIIRRYYC
modifications: 14 MeTyr; C-term PEG12c-dc(MalFITC); cyclic 1-15 thioether
With B34 the binding [6] was “binds”.

B35: 894_v01_PEG12_C_Mal(FITC) (peptide)
peptide: AVFVWNYYIIRRYYC
modifications: 3 MePhe; 14 MeTyr; C-term PEG12c-dc(MalFITC); cyclic 1-15 thioether
For B35, the binding [6] was “binds”.

B36: 894_v02_PEG12_C_Mal(FITC) (peptide)
peptide: AVFVWNYYIIKRYYC
modifications: 3 MePhe; 14 MeTyr; C-term PEG12c-dc(MalFITC); cyclic 1-15 thioether
B36 was tested, and the binding [6] was “binds”.

B37: 894_v03_PEG12_C_Mal(FITC) (peptide)
peptide: AVFVWNYYIIRRYYC
modifications: 3 MePhe; 5 MeTrp; 14 MeTyr; C-term PEG12c-dc(MalFITC); cyclic 1-15 thioether
For B37, the binding [6] was “binds”.

B38: 894_v04_PEG12_C_Mal(FITC) (peptide)
peptide: AVFVWNYYIIKRYYC
modifications: 3 MePhe; 5 MeTrp; 14 MeTyr; C-term PEG12c-dc(MalFITC); cyclic 1-15 thioether
With B38 the binding [6] was “binds”.

B39: 894_v04_PEG4_C_Mal(FITC) (peptide)
peptide: AVFVWNYYIIKRYYC
modifications: 3 MePhe; 5 MeTrp; 14 MeTyr; C-term PEG4c-dc(MalFITC); cyclic 1-15 thioether
In the case of B39, the binding [6] is reported as “binds”.

B40: 894_v06_PEG12_C_Mal(FITC) (peptide)
peptide: AVFVWNYYIIRRYYC
modifications: 5 MeTrp; 14 MeTyr; C-term PEG12c-dc(MalFITC); cyclic 1-15 thioether
In the case of B40, the binding [6] is reported as “binds”.

B41: 894_v07_PEG12_C_Mal(FITC) (peptide)
peptide: AVFVWNYYIIKRYYC
modifications: 5 MeTrp; 14 MeTyr; C-term PEG12c-dc(MalFITC); cyclic 1-15 thioether
For B41, the binding [6] was “binds”.

B42: 894_v07_PEG4_C_Mal(FITC) (peptide)
peptide: AVFVWNYYIIKRYYC
modifications: 5 MeTrp; 14 MeTyr; C-term PEG4c-dc(MalFITC); cyclic 1-15 thioether
In the case of B42, the binding [6] is reported as “binds”.

B43: 894_3m_PEG4_PEG4_K(Mal) (peptide)
peptide: AVFVWNYYIIRRYYC
modifications: 3 MePhe; 14 MeTyr; C-term PEG4c-PEG4c-K(Maleimide)-Cys; cyclic 1-15 thioether
For B43, the binding [3] was “binds”.

B44: 894_3_5m_PEG04_K(Mal) (peptide)
peptide: AVFVWNYYIIRRYYC
modifications: 3 MePhe; 5 MeTrp; 14 MeTyr; C-term PEG4c-K(Maleimide)-Cys; cyclic 1-15 thioether
With B44 the binding [6] was “binds”.

B45: 894_3_5m_PEG08_K(Mal) (peptide)
peptide: AVFVWNYYIIRRYYC
modifications: 3 MePhe; 5 MeTrp; 14 MeTyr; C-term PEG8c-K(Maleimide)-Cys; cyclic 1-15 thioether
For B45, the binding [6] was “binds”.

B46: 894_3m_K(Mal) (peptide)
peptide: AVFVWNYYIIRRYYC
modifications: 3 MePhe; 14 MeTyr; C-term K(Maleimide)-Cys; cyclic 1-15 thioether
For B46, the binding [6] was “binds”.

B47: 894_3m_GGGSS_K(Mal) (peptide)
peptide: AVFVWNYYIIRRYYC
modifications: 3 MePhe; 14 MeTyr; C-term G-G-G-S-S-K(Maleimide)-Cys; cyclic 1-15 thioether
For B47, the binding [6] was “binds”.

B48: 894_3m_G_K(Mal) (peptide)
peptide: AVFVWNYYIIRRYYC
modifications: 3 MePhe; 14 MeTyr; C-term G-K(Maleimide)-Cys; cyclic 1-15 thioether
For B48, the binding [6] was “binds”.

B49: S94_3m_GGSGSS_K(Mal) (peptide)
peptide: AVFVWNYYIIRRYYC
modifications: 3 MePhe; 14 MeTyr; C-term G-G-S-G-S-S-K(Maleimide)-Cys; cyclic 1-15 thioether
In the case of B49, the binding [6] is reported as “binds”.

B50: 894_3m_GGSGES_K(Mal) (peptide)
peptide: AVFVWNYYIIRRYYC
modifications: 3 MePhe; 14 MeTyr; C-term G-G-S-G-E-S-K(Maleimide)-Cys; cyclic 1-15 thioether
B50 was tested, and the binding [6] was “binds”.

B51: 894_3m_GGSS_K(Mal) (peptide)
peptide: AVFVWNYYIIRRYYC
modifications: 3 MePhe; 14 MeTyr; C-term G-G-S-S-K(Maleimide)-Cys; cyclic 1-15 thioether
For B51, the binding [6] was “binds”.

B52: 894_3m_GGS_K(Mal) (peptide)
peptide: AVFVWNYYIIRRYYC
modifications: 3 MePhe; 14 MeTyr; C-term G-G-S-K(Maleimide)-Cys; cyclic 1-15 thioether
B52 was tested, and the binding [6] was “binds”.

B53: 894_3m_GG_K(Mal) (peptide)
peptide: AVFVWNYYIIRRYYC
modifications: 3 MePhe; 14 MeTyr; C-term G-G-K(Maleimide)-Cys; cyclic 1-15 thioether
In the case of B53, the binding [6] is reported as “binds”.

B54: 894_5m_GSSGSS_K(Mal) (peptide)
peptide: AVFVWNYYIIRRYYC
modifications: 5 MeTrp; 14 MeTyr; C-term G-S-S-G-S-S-K(Maleimide)-Cys; cyclic 1-15 thioether
B54 was tested, and the binding [6] was “binds”.

B55: JCR_hTfR_100003_PEG11_K(FITC) (peptide)
peptide: AVFVWNYYIVHC
modifications: C-term PEG11-K-FITC; cyclic 1-12 thioether
In the case of B55, the binding [4] is reported as “binds”.
